From paper PMC10117100
These are yes or no findings as the source states them, for the method shown. Binding seen in cells or lysates may run through a third protein. These calls come from enrichment with a bait or labelling near it, and not all partners need be listed.

Molecular target: T1, ΔNp73α-TAP (human) (UniProt O15350)
T1 sequence: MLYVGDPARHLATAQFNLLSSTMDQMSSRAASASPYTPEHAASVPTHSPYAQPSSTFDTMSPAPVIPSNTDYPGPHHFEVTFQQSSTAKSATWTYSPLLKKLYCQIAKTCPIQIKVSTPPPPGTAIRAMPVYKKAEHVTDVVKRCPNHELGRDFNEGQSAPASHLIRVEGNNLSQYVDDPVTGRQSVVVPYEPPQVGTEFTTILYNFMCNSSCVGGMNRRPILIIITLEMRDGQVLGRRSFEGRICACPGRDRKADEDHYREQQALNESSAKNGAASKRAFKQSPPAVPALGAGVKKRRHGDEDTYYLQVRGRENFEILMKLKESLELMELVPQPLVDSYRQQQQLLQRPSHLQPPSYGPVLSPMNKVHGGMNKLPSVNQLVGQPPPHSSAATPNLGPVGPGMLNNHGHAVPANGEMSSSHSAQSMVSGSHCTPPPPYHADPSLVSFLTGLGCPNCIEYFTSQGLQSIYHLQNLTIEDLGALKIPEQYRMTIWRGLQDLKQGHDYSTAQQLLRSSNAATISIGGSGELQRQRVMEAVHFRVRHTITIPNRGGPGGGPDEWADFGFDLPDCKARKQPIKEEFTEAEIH
Assay: affinity purification with mass spectrometry; tandem affinity purification (IgG Sepharose, TEV cleavage, calmodulin Sepharose) of ΔNp73α-TAP from the nuclear soluble fraction of 38HK; LC-MS of elution fraction 2; TAP tag alone as control; hits enriched more than 10-fold

B1: endogenous p63 (38HK) (protein, UniProt Q9H3D4 1-680)
chain: MNFETSRCATLQYCPDPYIQRFVETPAHFSWKESYYRSTMSQSTQTNEFLSPEVFQHIWDFLEQPICSVQPIDLNFVDEPSEDGATNKIEISMDCIRMQDSDLSDPMWPQYTNLGLLNSMDQQIQNGSSSTSPYNTDHAQNSVTAPSPYAQPSSTFDALSPSPAIPSNTDYPGPHSFDVSFQQSSTAKSATWTYSTELKKLYCQIAKTCPIQIKVMTPPPQGAVIRAMPVYKKAEHVTEVVKRCPNHELSREFNEGQIAPPSHLIRVEGNSHAQYVEDPITGRQSVLVPYEPPQVGTEFTTVLYNFMCNSSCVGGMNRRPILIIVTLETRDGQVLGRRCFEARICACPGRDRKADEDSIRKQQVSDSTKNGDGTKRPFRQNTHGIQMTSIKKRRSPDDELLYLPVRGRETYEMLLKIKESLELMQYLPQHTIETYRQQQQQQHQHLLQKQTSIQSPSSYGNSSPPLNKMNSMNKLPSVSQLINPQQRNALTPTTIPDGMGANIPMMGTHMPMAGDMNGLSPTQALPPPLSMPSTSHCTPPPPYPTDCSIVSFLARLGCSSCLDYFTTQGLTTIYQIEHYSMDDLASLKIPEQFRHAIWKGILDHRQLHEFSSPSHLLRTPSSASTVSVGSSETRGERVIDAVRFTLRQTISFPPRDEWNDFNFDMDARRNKQQRIKEEGE
  binding: binds
